Literature values as cited in patent US8673957B2, “Fluorescent probe” (Tetsuo Nagano, priority 2003, dated 2014).
At least one compound was matched to its structure with a doubt left.

Settings: in aqueous 0.1 M NaOH; cited from earlier work

O=C1OC2(c3ccc(O)cc3Oc3cc(O)ccc32)c2ccccc21 [fluorescein]
quantum yield of the reference standard: 0.85
